# Results deposited as PubChem BioAssay AID1259254 (NCATS, 2017).
# Screen: 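Genome-wide screen for genes that prevent DNA re-replication in cancer cells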 (primary screen)
# Cells: human HCT116 colorectal cancer cells
# Reagents: single siRNA against human genes
# Duration: 3 days
# Measured: 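Imaged Hoechst DNA stain sorts each cell into a cycle phase by DNA amount; per plate, G2 fraction set to 0% for non-targeting and 100% for GMNN siRNA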
# Scale: G2 robust z-score: higher = more G2 cells, more excess DNA replication
# Active means: 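Active siRNAs have a G2 robust z of 5 or more median absolute deviations over the median, which in these data means about 38% or higher of GMNN control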
# In all, the deposit lists about 59,000 reagents; below is a random part of them. In the full data, about 1,550 (2.6%) got an active call. 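G2 share is only a proxy for re-replication; each gene was hit by three separate siRNAs, and active genes were retested.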 Entries without a mark were called inactive. Further read-outs or replicates are left out here. Not given: the amount of reagent.
gene symbol,PubChem SID,G2 robust z-score
FAM47DP (GeneID 139249),SID160757677,-0.529
FAM47DP (GeneID 139249),SID160757678,1.15
FAM47DP (GeneID 139249),SID160757679,-0.599
THUMPD1 (GeneID 55623),SID160743928,-0.389
THUMPD1 (GeneID 55623),SID160743929,-1.08
THUMPD1 (GeneID 55623),SID160743930,-0.786
SIGLEC7 (GeneID 27036),SID160738280,3.91
SIGLEC7 (GeneID 27036),SID160738282,-0.795
SIGLEC7 (GeneID 27036),SID160738283,-0.6
NFKBIL1 (GeneID 4795),SID160723954,-0.602
NFKBIL1 (GeneID 4795),SID160778034,-1.24
NFKBIL1 (GeneID 4795),SID160778035,-1.36
QTMAN (GeneID 79712),SID160749255,0.233
QTMAN (GeneID 79712),SID160749256,-0.854
QTMAN (GeneID 79712),SID160749257,0.0933
VSIG8 (GeneID 391123),SID160733268,-0.193
VSIG8 (GeneID 391123),SID160766643,-1.25
VSIG8 (GeneID 391123),SID160766644,0.657
POU3F4 (GeneID 5456),SID160714681,-0.85
POU3F4 (GeneID 5456),SID160714683,0.102
POU3F4 (GeneID 5456),SID160731456,-0.154
C4orf46 (GeneID 201725),SID160761016,0.221
C4orf46 (GeneID 201725),SID160761017,-0.793
C4orf46 (GeneID 201725),SID160761018,-0.688
SEZ6L (GeneID 23544),SID160732768,0.253
SEZ6L (GeneID 23544),SID160736519,5.84 (active)
SEZ6L (GeneID 23544),SID160736520,-0.793
APOM (GeneID 55937),SID160744664,0.606
APOM (GeneID 55937),SID160744665,-0.0583
APOM (GeneID 55937),SID160744666,-0.796
LCAT (GeneID 3931),SID160776538,-0.203
LCAT (GeneID 3931),SID160776539,0.428
LCAT (GeneID 3931),SID160776540,-0.92
DNA2 (GeneID 1763),SID160755115,4.96
DNA2 (GeneID 1763),SID160755126,0.782
DNA2 (GeneID 1763),SID160755137,1.46
ZBED5-AS1 (GeneID 729013),SID160772346,0.209
ZBED5-AS1 (GeneID 729013),SID160772347,-0.81
ZBED5-AS1 (GeneID 729013),SID160772348,0.00227
PDCD2L (GeneID 84306),SID160735092,-0.198
PDCD2L (GeneID 84306),SID160752117,-1.08
PDCD2L (GeneID 84306),SID160752118,0.34
ESAM (GeneID 90952),SID160753850,2.61
ESAM (GeneID 90952),SID160753851,-0.756
ESAM (GeneID 90952),SID160753852,2.29
TMEM102 (GeneID 284114),SID160763178,-0.609
TMEM102 (GeneID 284114),SID160763179,0.311
TMEM102 (GeneID 284114),SID160763180,-0.685
